According to article PMC9225994:
Results are given in words; binding and its absence hold for the method and conditions named. Some results given as binding are weak or reduced against the parent protein; the word gives no strength.

Chains of the proteins cited; added tags and fusions are not shown. Lines headed by an entry give the natural chain unless they say otherwise; changes in a name come on top.
UniProt Q01094: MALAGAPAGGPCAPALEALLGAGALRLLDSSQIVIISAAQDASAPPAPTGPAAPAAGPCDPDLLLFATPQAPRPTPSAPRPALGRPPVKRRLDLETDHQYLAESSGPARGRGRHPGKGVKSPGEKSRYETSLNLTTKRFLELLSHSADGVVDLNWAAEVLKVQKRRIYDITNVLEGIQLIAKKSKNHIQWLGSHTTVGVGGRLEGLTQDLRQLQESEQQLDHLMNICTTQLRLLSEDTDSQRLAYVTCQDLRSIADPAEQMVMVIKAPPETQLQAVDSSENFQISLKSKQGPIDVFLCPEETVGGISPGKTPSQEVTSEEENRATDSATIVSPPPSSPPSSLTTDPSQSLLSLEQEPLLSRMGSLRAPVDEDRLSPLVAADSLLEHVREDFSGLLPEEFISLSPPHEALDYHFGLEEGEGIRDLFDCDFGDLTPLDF

Target: E2F complexes (E2F1 co-expressed with DP1) (UniProt Q01094)
Assay: native gel or EMSA; nuclear extracts of Q2bn fibroblasts transfected with pCMV-E2F1, pCMV-DP1 and pcDNA3-CEBPE as indicated, 24 h; E2F probe derived from the DHFR promoter (and a CEBP probe); anti-CEBPE Ab (H-75)

binding: binds
B1: CEBPE (CCAAT/enhancer-binding protein epsilon), full-length human (protein, UniProt Q15744 1-281)
chain: MSHGTYYECEPRGGQQPLEFSGGRAGPGELGDMCEHEASIDLSAYIESGEEQLLSDLFAVKPAPEARGLKGPGTPAFPHYLPPDPRPFAYPPHTFGPDRKALGPGIYSSPGSYDPRAVAVKEEPRGPEGSRAASRGSYNPLQYQVAHCGQTAMHLPPTLAAPGQPLRVLKAPLATAAPPCSPLLKAPSPAGPLHKGKKAVNKDSLEYRLRRERNNIAVRKSRDKAKRRILETQQKVLEYMAENERLRSRVEQLTQELDTLRNLFRQIPEAANLIKGVGGCS
